Results are given in words; binding and its absence hold for the method and conditions named. In cells and extracts the contact can be indirect. Some results given as binding are weak or reduced against the parent protein; the word gives no strength. For some of these results: Where a sequence is shown, tags or fusion partners need not be part of it.
What was measured:
[1] = target: T1, endogenous TRIM26 (human (endogenous in Huh-7)) (UniProt Q12899); assay: proximity ligation; Huh-7 and Huh-7/HBc-FLAG cells (stable); antibodies against FLAG-tag and TRIM26 (endogenous); PLA dots per nucleus
T1 sequence: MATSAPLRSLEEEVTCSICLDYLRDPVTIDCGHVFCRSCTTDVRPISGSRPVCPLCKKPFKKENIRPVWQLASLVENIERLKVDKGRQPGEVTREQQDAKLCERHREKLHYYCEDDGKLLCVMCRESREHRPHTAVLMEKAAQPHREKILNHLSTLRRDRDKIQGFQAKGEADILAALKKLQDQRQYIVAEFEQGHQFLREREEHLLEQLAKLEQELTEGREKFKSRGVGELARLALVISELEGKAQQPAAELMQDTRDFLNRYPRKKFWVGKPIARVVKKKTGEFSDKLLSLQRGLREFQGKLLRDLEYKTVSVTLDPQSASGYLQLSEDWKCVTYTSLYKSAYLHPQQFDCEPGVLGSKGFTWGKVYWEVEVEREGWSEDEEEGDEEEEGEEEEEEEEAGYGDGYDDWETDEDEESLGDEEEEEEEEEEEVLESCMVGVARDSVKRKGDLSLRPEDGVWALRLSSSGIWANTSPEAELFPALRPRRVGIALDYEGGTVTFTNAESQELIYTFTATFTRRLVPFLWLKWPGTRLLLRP

Protein sequences, listed by entry. Tags and fused reporters are not part of them.
UniProt P03146: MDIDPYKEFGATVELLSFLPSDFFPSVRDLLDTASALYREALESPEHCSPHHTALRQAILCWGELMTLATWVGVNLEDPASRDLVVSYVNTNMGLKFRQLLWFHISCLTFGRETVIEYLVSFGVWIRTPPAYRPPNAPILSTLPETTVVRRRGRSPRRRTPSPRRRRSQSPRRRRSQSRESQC

[2] = target: T2, FLAG-tagged TRIM26 (tripartite motif-containing protein 26) (UniProt Q12899); assay: co-IP; HEK293T co-transfected with FLAG-TRIM26 or its deletion mutants and a Myc-tagged HBV protein; harvested at 48 hpt in NP-40 buffer (50 mM Hepes pH7.5, 150 mM NaCl, 0.5% NP-40); IP with anti-FLAG antibody on Protein G magnetic beads, room temperature 1 h; western blotting
T2 sequence: T1 sequence

[3] = target: T2, FLAG-tagged TRIM26 (tripartite motif-containing protein 26); assay: co-IP; competitive Co-IP: HEK293T co-transfected with FLAG-TRIM26, TRIM26ΔR and HBc-Myc; harvested at 48 hpt; IP with anti-FLAG antibody; western blotting
[4] = target: T2, FLAG-tagged TRIM26 (tripartite motif-containing protein 26); assay: proximity ligation; HEK293T transiently co-transfected with HBc-Myc and FLAG-TRIM26, FLAG-TRIM26ΔSPRY or FLAG-SPRY; fixed, permeabilised; antibodies against Myc-tag and FLAG-tag; PLA dots per nucleus

Row | Substance | binding [1] | binding [2] | binding [3] | binding [4]
1 | FLAG-tagged HBc (HBc-FLAG) (from UniProt P03146 1-183) | binds | – | – | –
2 | Myc-tagged HBV core protein (HBc-Myc) (from UniProt P03146 1-183) | – | binds | binds | binds
